Test results published in patent US20090203877A1, “X-RAY-DENSE CONJUGATE” (Eberhard-Karls-Universitaet Tuebingen Universitaetsklinkum, priority 2006, published 2009).
Entries after “also recorded” stand apart in the source; their conditions may differ. Not every detail of the peptide structures is certain; ends, links or a residue may be inferred.

Tested on: human malignant LN18 glioma cells
Test: Computer tomography, signal density of cell centrifugates
Format: cell-based
Conditions: 20 min
Description: After an incubation of 20 minutes at 37° C./5% CO2 the cells were washed three times with PBS buffer and centrifuged at 800 rpm (rounds per minute) for 5 minutes. The fluorescence was measured in Becton Dickinson FACSCalibur as described under 1.4. The computer tomography was performed as described under 1.5.1. The examinations were repeated two times. For the CT and FACS examinations human LN-18 and U373 glioma cells were cultivated in 75 cm^2 culture flasks (Corning Costar) (70% confluency) (conditions as described under 1.4). Accutase™ (PAA Laboratories) was added to detach the cells from the bottom of the culture flasks. The cells were collected and then distributed on Eppendorf tubes (6×10^6 cells per tube). The cells in the first two tubes serve as a control (in each case only PBS, LN18 and U373 glioma cells, native). The cells in the other tubes (in each case LN18 and U373 glioma cells) were incubated with a 260 μM or 2.6 mM solution of the conjugate 12 for 20 minutes at 37° C. and 5% CO2 and in the following washed for three times with PBS buffer and centrifuged for 5 minutes with 800 rpm (rounds per minute). For a small amount of the cells it was tested by the MMT test (see 1.4) how many of the cells were still viable. The computer tomography of the cell centrifuges was performed with the Somatom Sensation 16 (Siemens). […]

Structure (SMILES): CC(C)[C@H](NC(=O)[C@H](CCCCN)NC(=O)[C@H](CCCNC(=N)N)NC(=O)[C@H](CCCCN)NC(=O)[C@H](CCCCN)NC(=O)[C@H](CCCCN)NC(=O)[C@@H]1CCCN1C(=O)c1cc(I)cc(I)c1I)C(=O)N[C@@H](CCCCNC(=S)Nc1ccc2c(c1)C(=O)OC21c2ccc(O)cc2Oc2cc(O)ccc21)C(=O)NCC(=O)NCC(=O)N[C@@H](CCCCN)C(N)=O [conjugate 12, P(TIBA)KKKRKVK(FITC)GGK]
- CT signal density of cell centrifugates (260 μM): low signal density
- CT signal density of cell centrifugates (2.6 mM): can be delimited in the tubes due to the higher signal density; also recorded: clear increase of the signal density
